Reference: patent US5316919A (priority 1992, dated 1994)

What was measured:
Conditions in all cases: whole synthesis, scale 0.5 mmol
[1] = Boc solid-phase peptide synthesis; Boc-Glu(OBzl) PAM resin; dicyclohexylcarbodiimide
[2] = Boc solid-phase peptide synthesis; Boc-L-Ala PAM resin; dicyclohexylcarbodiimide
[3] = Boc solid-phase peptide synthesis; Boc-L-Pro PAM resin; dicyclohexylcarbodiimide

## H-HSDAVFTDNYTRLRKQLAVKKYLNSILNGPE-OH
[1]
  isolated mass: 50 mg

## PEPTIDE1{H.S.D.A.V.F.T.D.N.Y.T.R.L.R.K.Q.L.A.V.K.K.Y.L.N.S.I.L.N.G.P.E.A}$$$$V2.0
[2]
  isolated mass: 40 mg

## PEPTIDE1{H.S.D.A.V.F.T.D.N.Y.T.R.L.R.K.Q.L.A.V.K.K.Y.L.N.S.I.L.N.G.P}$$$$V2.0
[3]
  isolated mass: 50 mg

For part of these data: HELM strings list residues between dots; [ac] is acetyl, [am] amide, other brackets name non-standard units.
